Assay results published in patent US20060210536A1 (published 2006).
These are yes or no findings as the source states them, for the method shown. Some binding calls cover weakened binding; strength is not graded here.

Amino acid sequences for entries named in this document (tags omitted).
UniProt P52630: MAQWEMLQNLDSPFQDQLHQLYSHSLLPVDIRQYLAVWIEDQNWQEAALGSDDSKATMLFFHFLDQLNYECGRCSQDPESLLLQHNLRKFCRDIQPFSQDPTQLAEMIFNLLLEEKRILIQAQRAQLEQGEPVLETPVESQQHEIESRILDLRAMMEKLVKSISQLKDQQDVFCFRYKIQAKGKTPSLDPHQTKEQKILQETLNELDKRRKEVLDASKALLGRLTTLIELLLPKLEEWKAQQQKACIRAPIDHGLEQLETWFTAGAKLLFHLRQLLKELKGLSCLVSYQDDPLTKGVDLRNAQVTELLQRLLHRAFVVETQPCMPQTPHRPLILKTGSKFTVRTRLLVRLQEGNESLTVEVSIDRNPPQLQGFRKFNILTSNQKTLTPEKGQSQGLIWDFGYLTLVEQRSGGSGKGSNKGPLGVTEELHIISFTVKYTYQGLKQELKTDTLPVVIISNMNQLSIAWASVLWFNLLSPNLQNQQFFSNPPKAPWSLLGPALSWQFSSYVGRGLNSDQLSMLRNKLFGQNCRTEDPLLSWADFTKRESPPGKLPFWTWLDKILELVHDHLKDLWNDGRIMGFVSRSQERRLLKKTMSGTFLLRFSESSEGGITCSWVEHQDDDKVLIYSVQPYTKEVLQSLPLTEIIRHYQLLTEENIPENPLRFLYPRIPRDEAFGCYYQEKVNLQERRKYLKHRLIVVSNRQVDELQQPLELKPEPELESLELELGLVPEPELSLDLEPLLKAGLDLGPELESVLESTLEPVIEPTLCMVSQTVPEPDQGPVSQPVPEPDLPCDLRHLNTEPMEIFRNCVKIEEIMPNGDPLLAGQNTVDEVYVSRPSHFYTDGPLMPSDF
UniProt P11207: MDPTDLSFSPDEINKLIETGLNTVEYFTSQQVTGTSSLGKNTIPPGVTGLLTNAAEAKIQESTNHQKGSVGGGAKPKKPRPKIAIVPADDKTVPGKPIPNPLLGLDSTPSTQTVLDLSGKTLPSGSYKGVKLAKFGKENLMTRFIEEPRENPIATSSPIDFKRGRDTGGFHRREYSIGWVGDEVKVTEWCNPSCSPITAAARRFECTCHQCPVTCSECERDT

Molecular target: STAT2 (UniProt P52630)
Assay: FLAG affinity purification from transfected cell lysate, immunoblot with STAT2 antiserum

For “FLAG-tagged SV5 V protein (from UniProt P11207 1-222)”, which binding is on record?
Its binding is “binds”.
